Results are given in words; binding and its absence hold for the method and conditions named. In cells and extracts the contact can be indirect. Some entries that bind do so weakly or less than the wild type.
Target: enhancer of zeste homolog 2 (EZH2) (human (endogenous in UMUC3)) (UniProt Q15910)
Assay: co-IP; UMUC3 cell lysate (IP lysis buffer), 500 ug protein pre-cleared with Protein A+G agarose; IP antibodies against SIRT7 or EZH2 overnight at 4 C; Western blot detection

Sequences of proteins named here, by UniProt entry; tags and fusion partners are left off.
UniProt Q15910: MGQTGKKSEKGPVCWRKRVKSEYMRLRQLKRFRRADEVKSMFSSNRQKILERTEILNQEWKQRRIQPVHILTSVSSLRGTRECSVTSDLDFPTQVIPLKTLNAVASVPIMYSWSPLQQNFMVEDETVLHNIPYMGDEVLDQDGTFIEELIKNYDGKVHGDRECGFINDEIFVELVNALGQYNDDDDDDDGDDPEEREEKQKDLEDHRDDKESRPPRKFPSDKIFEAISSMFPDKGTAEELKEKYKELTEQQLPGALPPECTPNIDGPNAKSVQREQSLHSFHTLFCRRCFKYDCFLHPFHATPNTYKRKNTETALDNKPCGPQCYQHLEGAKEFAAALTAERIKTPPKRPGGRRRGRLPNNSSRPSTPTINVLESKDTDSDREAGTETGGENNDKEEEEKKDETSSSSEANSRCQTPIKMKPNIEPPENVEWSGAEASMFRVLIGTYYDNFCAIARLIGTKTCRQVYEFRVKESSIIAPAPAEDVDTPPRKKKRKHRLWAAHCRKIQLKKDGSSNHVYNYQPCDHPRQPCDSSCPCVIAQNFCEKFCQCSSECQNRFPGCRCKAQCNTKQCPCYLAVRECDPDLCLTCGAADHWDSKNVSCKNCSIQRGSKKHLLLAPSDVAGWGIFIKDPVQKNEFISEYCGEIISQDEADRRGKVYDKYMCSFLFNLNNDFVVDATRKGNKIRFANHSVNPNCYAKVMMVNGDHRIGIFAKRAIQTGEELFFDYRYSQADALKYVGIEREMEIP
UniProt Q9NRC8: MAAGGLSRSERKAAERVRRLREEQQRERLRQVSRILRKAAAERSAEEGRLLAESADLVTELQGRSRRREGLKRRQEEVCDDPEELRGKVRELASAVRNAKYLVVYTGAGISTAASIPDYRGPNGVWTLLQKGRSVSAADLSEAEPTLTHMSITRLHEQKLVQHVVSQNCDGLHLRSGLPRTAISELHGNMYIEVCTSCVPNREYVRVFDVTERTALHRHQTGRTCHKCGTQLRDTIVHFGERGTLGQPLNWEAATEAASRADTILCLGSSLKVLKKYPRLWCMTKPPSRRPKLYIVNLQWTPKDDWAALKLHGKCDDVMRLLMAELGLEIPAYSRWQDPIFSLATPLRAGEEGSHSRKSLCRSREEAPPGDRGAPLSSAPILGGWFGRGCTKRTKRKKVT

binding: binds
Substance: SIRT7 (from UniProt Q9NRC8 1-400)
